Consider 30 molecules from the supplement of paper PMC12889115.

Molecules are shown by their SMILES. The list shows a part of the results. Values are raw readings; no control value is given beside them.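 Primary screen: polymyxin B was added at a level permeabilizing Salmonella outer membranes while sparing inner membranes. DMSO wells, both with and without polymyxin B, established maximum growth. Plate-to-plate variation meant each plate was ranked on its own, and the lowest-OD600 compounds were selected as hits.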

The assay relates to Salmonella enterica serovar Typhimurium SL1344. Put plainly: bacterial growth OD600 after 18 h with compound and polymyxin B; higher = more bacterial growth (less inhibition). The following applies: 50 µM, Mueller-Hinton broth.

With `CCC(NC(=O)c1cc(Cn2c(C)nc3ccccc32)[nH]n1)c1ccncc1` (stereo not given), the “bacterial growth OD600” value (polymyxin B 1 µg/mL) is 1. The same measure, in the same setting: for `CCOC(=O)C1(Cc2ccc(F)cc2)CCCN(C(=O)CC)C1` (stereo not given) the value was 0.899.

On to `COCCn1cnc2cc(NC(=O)C3CCCCC3)cc(C(=O)N(C)CCn3nc(C)cc3C)c21`, for which the “bacterial growth OD600” value (polymyxin B 0.75 µg/mL) was found to be 0.979. Consider `Cc1cc(N2CCN(C(=O)C3CCC(=O)N(CC4CCCCC4)C3)CC2)cc(C)n1` (stereo not given), for which the “bacterial growth OD600” value (polymyxin B 1 µg/mL) was 0.88.

Turning to `CCN(CCn1cccn1)C(=O)c1cc(COc2ccc(OC)c3ccccc23)on1`, under “polymyxin B 1 µg/mL”, the “bacterial growth OD600” value was 0.245. Take `Cc1cc(C)n(CCN(C)C(=O)CC2(c3cccc(C(F)(F)F)c3)CC(=O)N(C3CC3)C2=O)n1` (stereo not given): the “bacterial growth OD600” value (polymyxin B 0.75 µg/mL) worked out at 0.79. As for `Cc1cc(C(=O)N2CCC(n3nccc3NC(=O)c3ccc4c(c3)OCO4)CC2)nn1C`, the “bacterial growth OD600” value (polymyxin B 1 µg/mL) was determined as 0.907. Turning to `COC(=O)c1ccc(CNC(=O)CCC2(Cc3ccc(F)c(OC)c3)CCC(=O)N2)cc1` (stereo not given), the “bacterial growth OD600” value (polymyxin B 0.75 µg/mL) turned out to be 1.01. `CN(C)S(=O)(=O)NCc1cccnc1Oc1ccccc1F`: the “bacterial growth OD600” value (polymyxin B 1 µg/mL) amounted to 0.859. For the molecule `CC(C)NC(=O)C1CCN(C2CCN(Cc3cc(CN4CCCCC4)cs3)CC2)CC1`, the “bacterial growth OD600” value (polymyxin B 1 µg/mL) was found to be 1.08. On the same count and under the same terms, for `COc1ccc(CN(C)C2CCCN(CCc3ccccc3)C2)cc1Cn1cncn1` (stereo not given) the value was 0.955. As for `COc1ccc(OC2CCN(C(=O)CCC3(Cc4ccc(Cl)cc4)CCC(=O)N3)CC2)cc1` (stereo not given), the “bacterial growth OD600” value (polymyxin B 0.75 µg/mL) is 0.703. On to `CN(C)c1ncc2c(n1)CCCC2NC(=O)CCCN1CCCC1=O` (stereo not given), for which the “bacterial growth OD600” value (polymyxin B 1 µg/mL) was 0.906.

With `CCN1CCCC1CNC(=O)CCC1CCN(Cc2csc(C(C)=O)c2)CC1` (stereo not given), the “bacterial growth OD600” value (polymyxin B 1 µg/mL) was determined as 0.722.

Turning to `CC1(C)CC(Nc2nc3nonc3nc2NC2CCCC2)CCO1` (stereo not given), the “bacterial growth OD600” value (polymyxin B 1 µg/mL) was 0.797. On the same count and under the same terms, for `CC1(C)Cc2nc(C(C)(C)C)ncc2C(NC(=O)c2cnccn2)C1` (stereo not given) the value was 1.03. For `O=C(CC1(c2ccc(-c3ccccc3)cc2)CC(=O)N(C2CC2)C1=O)N1CC[C@@H]2CCCC[C@H]2C1` (stereo not given in full), the “bacterial growth OD600” value (polymyxin B 0.75 µg/mL) came to 0.007.

Turning to `COc1ccccc1CN(C)C(=O)c1coc(COc2ccc(F)cc2)n1`, the “bacterial growth OD600” value (polymyxin B 0.75 µg/mL) came out at 0.893.

As to `CCOC(=O)C1(Cc2cccc(OC)c2)CCN(Cc2cc(C(C)C)[nH]n2)CC1`, for the setting “polymyxin B 1 µg/mL”, the “bacterial growth OD600” value is 0.827. Regarding `CCCc1cc(CN(C)C(=O)C2CCC(=O)N(CCc3ccccn3)C2)n[nH]1` (stereo not given), the “bacterial growth OD600” value (polymyxin B 1 µg/mL) came out at 0.854. With `CCN1CCN(C(=O)c2ccc(N3CCC(N(C)Cc4nc(-c5ccccc5)no4)CC3)cc2)CC1`, the “bacterial growth OD600” value (polymyxin B 0.75 µg/mL) was determined as 0.917. The same measure, in the same setting: the result for `COc1cccc(N2C(=O)CN(C(=O)c3ccc4[nH]ccc4c3)CC2C)c1` (stereo not given) reads 0.917. For `CC(=O)N1CCC(C(=O)N2CCCC(Nc3ccc(C(C)C)cc3)C2)CC1` (stereo not given), the “bacterial growth OD600” value (polymyxin B 1 µg/mL) came to 0.971. For the molecule `CCC1CN(CCC(=O)NCCCOc2cccnc2)Cc2ccc(Cl)cc2O1` (stereo not given), where the note is “polymyxin B 0.75 µg/mL”, the “bacterial growth OD600” value came out at 0.838. As for `Cc1ncoc1C(=O)N1CCCC(CNC(=O)c2ccc(-c3ccccc3)cc2)C1` (stereo not given), the “bacterial growth OD600” value (polymyxin B 1 µg/mL) turned out to be 1.15. In the case of `CC(CCn1cccn1)NC(=O)c1cn(Cc2ccccc2F)nn1` (stereo not given), the “bacterial growth OD600” value (polymyxin B 1 µg/mL) amounted to 1.11. Take `COc1cc(CN2CCC(c3nc(-c4ccncc4)ncc3-c3cccc(C)c3)CC2)ccc1F`: for the setting “polymyxin B 0.75 µg/mL”, the “bacterial growth OD600” value was 0.957. On the same count and under the same terms, the result for `CCCCN(Cc1ccccc1)C(=O)CCc1nnc(C(OC)c2ccccc2)o1` (stereo not given) reads 0.002. For `COc1ccc(CCN2CCCC(CN(C)Cc3ccc(F)c(OC)c3)C2)cc1` (stereo not given), the “bacterial growth OD600” value (polymyxin B 1 µg/mL) came to 0.655. `COc1ccc(CCN2CCCC(CN(C)Cc3ccc(OC)cc3)C2)cc1` (stereo not given): the “bacterial growth OD600” value (polymyxin B 0.75 µg/mL) came out at 0.8.
